Test results published in article PMC8750186.
These are yes or no findings as the source states them, for the method shown. In cells and extracts the contact can be indirect. Some entries that bind do so weakly or less than the wild type.

Amino acid sequences for entries named in this document (tags omitted). Residues count along the entry.
UniProt P08603, residues 19-1231: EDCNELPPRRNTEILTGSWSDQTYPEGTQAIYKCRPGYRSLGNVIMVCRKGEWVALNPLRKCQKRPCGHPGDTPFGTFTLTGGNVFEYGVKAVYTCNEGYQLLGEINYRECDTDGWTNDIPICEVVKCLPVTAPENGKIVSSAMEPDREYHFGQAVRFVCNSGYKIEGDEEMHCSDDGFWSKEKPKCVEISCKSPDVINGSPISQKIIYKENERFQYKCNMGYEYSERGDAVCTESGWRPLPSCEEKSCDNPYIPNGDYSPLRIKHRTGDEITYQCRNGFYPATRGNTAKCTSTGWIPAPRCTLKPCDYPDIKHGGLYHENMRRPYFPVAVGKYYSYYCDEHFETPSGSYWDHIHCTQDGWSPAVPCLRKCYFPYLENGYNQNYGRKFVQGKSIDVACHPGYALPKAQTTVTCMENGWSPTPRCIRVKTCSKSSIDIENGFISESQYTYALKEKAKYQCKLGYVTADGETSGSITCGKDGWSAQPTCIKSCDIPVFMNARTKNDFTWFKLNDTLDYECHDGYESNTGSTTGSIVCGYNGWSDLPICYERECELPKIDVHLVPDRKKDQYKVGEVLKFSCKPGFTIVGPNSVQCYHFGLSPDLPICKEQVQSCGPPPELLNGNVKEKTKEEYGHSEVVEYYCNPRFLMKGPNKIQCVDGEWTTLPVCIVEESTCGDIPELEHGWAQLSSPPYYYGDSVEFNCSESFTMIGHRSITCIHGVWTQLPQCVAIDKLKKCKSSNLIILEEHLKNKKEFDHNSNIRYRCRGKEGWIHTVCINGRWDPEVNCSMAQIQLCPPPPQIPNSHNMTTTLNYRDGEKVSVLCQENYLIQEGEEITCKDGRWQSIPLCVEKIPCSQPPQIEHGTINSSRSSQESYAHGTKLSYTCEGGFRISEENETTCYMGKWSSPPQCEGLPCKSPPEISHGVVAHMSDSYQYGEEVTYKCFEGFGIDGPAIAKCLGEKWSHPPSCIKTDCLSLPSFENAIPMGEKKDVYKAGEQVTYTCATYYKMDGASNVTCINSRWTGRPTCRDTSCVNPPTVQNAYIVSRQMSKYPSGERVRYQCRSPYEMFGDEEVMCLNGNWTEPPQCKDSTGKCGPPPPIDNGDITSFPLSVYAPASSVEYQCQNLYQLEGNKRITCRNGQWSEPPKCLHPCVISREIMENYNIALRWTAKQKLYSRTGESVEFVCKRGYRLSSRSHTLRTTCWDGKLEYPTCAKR
UniProt P16220: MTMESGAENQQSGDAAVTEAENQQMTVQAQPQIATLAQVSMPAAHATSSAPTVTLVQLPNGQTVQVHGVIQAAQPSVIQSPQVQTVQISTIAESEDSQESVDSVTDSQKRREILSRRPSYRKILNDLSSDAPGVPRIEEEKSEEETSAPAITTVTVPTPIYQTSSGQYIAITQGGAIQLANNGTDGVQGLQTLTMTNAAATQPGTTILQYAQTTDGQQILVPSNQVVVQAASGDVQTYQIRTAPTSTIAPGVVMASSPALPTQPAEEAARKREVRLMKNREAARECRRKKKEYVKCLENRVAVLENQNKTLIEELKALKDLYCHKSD

Molecular target: complement factor H (FH) (human (endogenous in hTERT-RPE1)) (UniProt P08603)
Assay: co-IP; Western blot for CREB1 on eluates of FH-IPs and IgG control IPs from hTERT-RPE1 lysates

## CREB1 (from UniProt P16220 1-327)
  binding: binds
